Measured values reported in the supplement of paper PMC9877034.
Structures can show the parent of a compound that is named as a salt. ± gives the standard deviation of the averaged measurements. The full ranking holds about 1,000 compounds; the median of “cFRET/donor change relative to DMSO, normalised to beta-lapachone positive control (supercomplex I-IV assembly)” is about 0.18, and the lowest 2% start at about -1. Some of the results follow.

test system: C2C12 (NDUFB8-AcGFP / COX8A-DsRed-Monomer FRET reporter); experiment: cFRET/donor change relative to DMSO, normalised to beta-lapachone positive control (supercomplex I-IV assembly) (fraction of beta-lapachone effect); higher = more respiratory supercomplex assembly; conditions: 40 µM; 24 h
Description: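 Cells were treated with 40 uM compound for 24 h and imaged on an IN Cell Analyzer 6000. Corrected FRET was divided by donor signal (cFRET/donor) and measured in two replicate experiments. The score is (mean cFRET/donor of compound - mean DMSO) / (mean beta-lapachone 40 uM - mean DMSO). Compounds flagged for prominent cell death, abnormal morphology or decreased cell number were excluded.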

Row | Structure (SMILES) | cFRET/donor change
1 | Brc1c(NC2=NCCN2)ccc2nccnc12 | 0.252
2 | CN(C)CCOC(=O)COc1ccc(Cl)cc1 [Centrophenoxine hydrochloride] | 0.0376
3 | OC(CCN1CCCCC1)(c1ccccc1)C1CCCCC1 (configuration not stated) [Trihexyphenidyl hydrochloride] | 0.294
4 | N=C(N)N/N=C/c1c(Cl)cccc1Cl [Guanabenz acetate] | 0.39
5 | N[C@@H](C(=O)N[C@@H]1C(=O)N2C(C(=O)O)=C(Cl)CS[C@H]12)c1ccccc1 [Cefaclor] | 0.459
6 | NCCS(=O)O [Hypotaurine] | 0.0357
7 | CC(C)NC[C@H](O)c1ccc(O)c(O)c1 [R(-)-Isoproterenol (+)-bitartrate] | -0.0064
8 | CN(C)[C@@H]1C(O)=C(C(N)=O)C(=O)[C@@]2(O)C(O)=C3C(=O)c4c(O)ccc(Cl)c4[C@@H](O)[C@H]3C[C@@H]12 [Demeclocycline hydrochloride] | 1.7
9 | O=CN(O)CCCP(=O)(O)O [Fosmidomycin sodium salt hydrate] | 0.0766
10 | CCc1cccc2c3c([nH]c12)C(CC)(CC(=O)O)OCC3 (configuration not stated) [Etodolac] | 0.0376
11 | NOCC(=O)O [O-(Carboxymethyl)hydroxylamine hemihydrochloride] | 0.116
12 | O=C1N(c2ccccc2)c2ccccc2C1(Cc1ccncc1)Cc1ccncc1 [Linopirdine] | 0.146
13 | CN(C)CCC(c1ccc(Br)cc1)c1ccccn1 (racemic) [(±)-Brompheniramine maleate] | 0.0175
14 | Cc1ccccc1N1C(=O)c2cc(S(N)(=O)=O)c(Cl)cc2NC1C (configuration not stated) [Metolazone] | 0.165 ± 0.076
15 | CCCn1c(=O)c2[nH]c(-c3ccc(S(=O)(=O)O)cc3)nc2n(CCC)c1=O [1,3-Dipropyl-8-p-sulfophenylxanthine] | 0.138
16 | CNCCC(Oc1ccccc1OC)c1ccccc1 (configuration not stated) [Nisoxetine hydrochloride] | 0.186
17 | CC1CNCCN1S(=O)(=O)c1cccc2cnccc12 (configuration not stated) | 0.53
18 | CC(C)Cc1ccc(C(C)C(=O)O)cc1 (racemic) [(±)-Ibuprofen] | 0.406
19 | CCOC(=O)C1=C[C@]2(CC)CCCN3CCc4c(n1c1ccccc41)[C@@H]32 [Vinpocetine] | 0.169
20 | C[C@]12CC[C@@H]3c4ccc(O)cc4CC[C@H]3[C@@H]1CCC2=O [Estrone] | 0.406
21 | CCCCCCCC/C=C\CCCCCCCC(=O)NCCc1ccc(O)c(O)c1 [N-Oleoyldopamine] | 2.97
22 | CC(=O)C(C)=O [2,3-Butanedione] | 0.341
23 | COc1cc(C(O)C(=O)O)ccc1O (racemic) [(±)-Vanillylmandelic acid] | 0.0741
24 | CSc1nc(N)c2ncn([C@@H]3O[C@H](COP(=O)(O)OP(=O)(O)OP(=O)(O)O)[C@H](O)C3O)c2n1 (some centres not stated) [2-Methylthioadenosine triphosphate tetrasodium] | -0.0581

Two successive entries already listed, for reference:
Row | Structure (SMILES) | cFRET/donor change
14 | Cc1ccccc1N1C(=O)c2cc(S(N)(=O)=O)c(Cl)cc2NC1C (configuration not stated) [Metolazone] | 0.165 ± 0.076
15 | CCCn1c(=O)c2[nH]c(-c3ccc(S(=O)(=O)O)cc3)nc2n(CCC)c1=O [1,3-Dipropyl-8-p-sulfophenylxanthine] | 0.138

Further results follow:

Row | Structure (SMILES) | cFRET/donor change
25 | CN1[C@@H](CC(=O)c2ccccc2)CCC[C@H]1C[C@H](O)c1ccccc1 [alpha-Lobeline hydrochloride] | 0.0476
26 | CCCCNC(=O)NS(=O)(=O)c1ccc(C)cc1 [Tolbutamide] | 0.109
27 | Cc1cc2c(cc1Cl)N(C(=O)Nc1cccc3ncccc13)CC2 | -0.136
28 | CCCCCCCCCCC/C=C\C(C)(C)/C=C\CCCC(=O)O [7,7-Dimethyl-(5Z,8Z)-eicosadienoic acid] | 0.0414
29 | N=C(N)NCCC[C@H](N)C(=O)O [L-Arginine] | -0.123
30 | CNCCC(Oc1ccc(C(F)(F)F)cc1)c1ccccc1 (configuration not stated) [Fluoxetine hydrochloride] | 1.07
31 | O=P(O)(O)C(Cl)(Cl)P(=O)(O)O [Clodronic acid] | 0.14
32 | O=C1CCc2cc(OCCCCc3nnnn3C3CCCCC3)ccc2N1 [Cilostazol] | 0.239
33 | C=C(C)[C@@H]1CC=C(C(=O)O)CC1 [(-)-Perillic acid] | 0.0282
34 | COC(=O)[C@@H]1[C@H]2C[C@H]3c4[nH]c5ccccc5c4CCN3C[C@@H]2CC[C@@H]1O [Yohimbine hydrochloride] | 0.212
35 | CC1(C)NC(=O)N(c2ccc([N+](=O)[O-])c(C(F)(F)F)c2)C1=O [Nilutamide] | 0.154
36 | CC(C)C[C@H](NC(=O)[C@H]1O[C@@H]1C(=O)O)C(=O)NCCCCN=C(N)N | 0.0608
37 | CC(C)COC(=O)OCN1C(=O)CN(CCN2CC(=O)N(COC(=O)OCC(C)C)C(=O)C2)CC1=O [Sobuzoxane] | 0.0551
38 | O=C(Nc1nc2ccccc2n1CCN1CCOCC1)c1cccc([N+](=O)[O-])c1 [IRAK-1/4 Inhibitor I] | 0.326
39 | CC(=O)SCC[N+](C)(C)C [Acetylthiocholine chloride] | 0.0278
40 | Nc1ccc(-c2ccc3ccccc3n2)cc1 [BF-170 hydrochloride] | -0.429
41 | N=C(N)NC(=O)c1nc(Cl)c(N)nc1N [Amiloride hydrochloride] | -0.0692
42 | CC(C)NCC(O)c1ccc(NS(C)(=O)=O)cc1 (racemic) [(±)-Sotalol hydrochloride] | 0.137
43 | O=[N+]([O-])c1cccc2c(Br)[nH]nc12 [3-Bromo-7-nitroindazole] | -0.244
44 | NS(=O)(=O)c1cc(C(=O)O)c(NCc2ccco2)cc1Cl [Furosemide] | 0.0283
45 | NC(=S)c1ccc[n+]([C@@H]2O[C@@H](COP(=O)([O-])OP(=O)(O)OC[C@H]3O[C@@H](n4cnc5c(N)ncnc54)C(OP(=O)(O)O)[C@H]3O)C(O)C2O)c1 (some centres not stated) [Thio-NADP sodium] | -0.317
46 | CCc1cncnc1N1CCN(Cc2nc3ccc(C(F)(F)F)cc3[nH]2)CC1 | 0.351
47 | CN[C@H](CC(C)C)C(=O)N[C@H]1C(=O)N[C@@H](CC(N)=O)C(=O)N[C@H]2C(=O)N[C@H]3C(=O)N[C@H](C(=O)N[C@H](C(=O)O)c4cc(O)cc(O)c4-c4cc3ccc4O)[C@H](O)c3ccc(c(Cl)c3)Oc3cc2cc(c3O[C@@H]2O[C@H](CO)[C@@H](O)[C@H](O)[C@H]2O[C@H]2C[C@](C)(N)[C@H](O)[C@H](C)O2)Oc2ccc(cc2Cl)[C@H]1O [Vancomycin hydrochloride from Streptomyces orientalis] | 0.153
